PubChem BioAssay AID1671195, Yale University | 2021
In all, the deposit lists about 22,000 reagents; shown is an unselected part. Over the whole deposit, about 1,510 (6.9%) are marked active. 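Active includes knockdowns raising or lowering LDL uptake; positive z-scores mean more uptake, negative mean less.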 Unmarked entries are inactive. Reagents against one gene are numbered here.

Purpose: 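Regulators of LDL receptor activity judged by labelled LDL uptake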 (primary screen)
Cells: human Huh7 hepatoma cells
Knock-down reagent: siRNA pool against human genes, 18 nM
Time to read-out: about 2 to 2.5 days of knockdown, then 8 h LDL uptake
Conditions: DiI-labelled LDL at 30 µg/ml for 8 h, in lipoprotein-deficient serum medium
Detection: 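Fluorescent LDL signal imaged in cells, scaled to the plate median, robust z-score for each replicate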
Reading the numbers: robust z-score: higher = more LDL uptake after knockdown
Call rule: 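a gene counts as active if at least two replicate z-scores exceed ±2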

gene	reagent no.	robust z-score, replicate 1	robust z-score, replicate 2	robust z-score, replicate 3
HOXD4 (homeobox D4)	1	-0.895	-1.2	-0.737
BRI3BP (BRI3 binding protein)	1	0.293	0.653	-0.594
DDRGK1 (DDRGK domain containing 1)	1	-0.907	-0.902	-0.925
LOC440698 (retired record)	1	-0.479	-0.619	-0.411
SPSB2 (splA/ryanodine receptor domain and SOCS box containing 2)	1	0.224	1.02	0.753
TBCA (tubulin folding cofactor A)	1	0.349	-0.342	0.407
OR52E2 (olfactory receptor family 52 subfamily E member 2)	1	0.478	0.103	0.784
HSF2 (heat shock transcription factor 2)	1	0.169	0.24	1.02
CATSPER3 (cation channel sperm associated 3)	1	1.06	-0.242	0.763
DCUN1D2 (defective in cullin neddylation 1 domain containing 2)	1	0.894	-1.07	-1.1
KLHDC10 (kelch domain containing 10)	1	0.351	-0.922	-0.339
CDC16 (cell division cycle 16)	1	-0.937	-0.622	-0.544
LINC00312 (long independently transcribed non-coding RNA 312)	1	-0.947	0.435	0.0137
KIF2B (kinesin family member 2B)	1	0.547	0.58	0.248
DELEC1 (deleted in esophageal cancer 1)	1	-0.652	-0.00211	-1.85
SLC30A3	1	1.16	1.12	0.597
TIMM8B (translocase of inner mitochondrial membrane 8 homolog B)	1	-1.24	-0.584	-0.466
FAM222B (family with sequence similarity 222 member B)	1	-0.153	-1.05	-1.12
ASZ1	1	1.14	-0.405	0.626
DHX58 (DExH-box helicase 58)	1	0.0113	-0.331	-0.462
SLC39A1	1	0.0696	0.0778	0.633
OR7A17 (olfactory receptor family 7 subfamily A member 17)	1	-0.938	-0.305	-0.78
LOC441612 (retired record)	1	-0.736	-0.384	-0.62
YY1AP1 (YY1 associated protein 1)	1	-0.031	0.0566	-1.42
GJA4 (gap junction protein alpha 4)	1	0.0971	0.177	-0.15
POLR2A (RNA polymerase II subunit A)	1	-0.247	-0.376	-0.415
LOC440677 (retired record)	1	0.448	0.261	0.374
ZNF268 (zinc finger protein 268)	1	-0.979	-0.472	-1.1
COL5A3 (collagen type V alpha 3 chain)	1	-1.37	0.232	-0.142
RGS1 (regulator of G protein signaling 1)	1	-0.611	-0.654	-0.509
IGDCC4 (immunoglobulin superfamily DCC subclass member 4)	1	-0.29	-0.261	0.0173
LINC01721 (long independently transcribed non-coding RNA 1721)	1	0.362	0.0295	-0.0399
EFNA3 (ephrin A3)	1	-1.66	-1.2	-2.27
EEF2K (eukaryotic elongation factor 2 kinase)	1	-0.412	-0.358	0.0266
SGSM1 (small G protein signaling modulator 1)	1	0.492	1.23	1.56
DMXL2 (Dmx like 2)	1	0.17	-0.688	-0.419
TSLP (thymic stromal lymphopoietin)	1	-0.18	0.142	-0.791
KRT8P12 (keratin 8 pseudogene 12)	1	-0.88	-0.495	-0.608
ZBTB14 (zinc finger and BTB domain containing 14)	1	1.4	0.509	0.731
LINC02909 (long independently transcribed non-coding RNA 2909)	1	-0.528	-0.697	0.427
KGD4 (alpha-ketoglutarate dehydrogenase subunit 4)	1	-0.176	-0.417	-0.496
TUSC8 (tumor suppressor candidate 8)	1	0.502	0.359	-0.334
EDDM3A (epididymal protein 3A)	1	-0.213	-0.558	1.75
GRB2 (growth factor receptor bound protein 2)	1	-0.706	0.495	-0.903
ZNF702P (zinc finger protein 702, pseudogene)	1	-1.28	-1.32	-0.482
MPV17 (mitochondrial inner membrane protein MPV17)	1	-0.897	-0.384	-0.425
RBM22 (RNA binding motif protein 22)	1	-0.873	-0.708	-1.25
PODNL1 (podocan like 1)	1	1.49	1.32	1.82
FOXD4L4 (forkhead box D4 like 4)	1	0.0857	-0.0947	-0.484
ALDH1B1 (aldehyde dehydrogenase 1 family member B1)	1	0.421	0.238	0.129
ARHGAP42 (Rho GTPase activating protein 42)	1	-2.02 (active)	-2.41	-2.2
ARHGAP42 (Rho GTPase activating protein 42)	2	-1.01	-1.69	-0.954
CRNN (cornulin)	1	0.181	-0.0173	0.338
SYT7 (synaptotagmin 7)	1	-0.914	-1.14	-0.876
FAM20C (FAM20C golgi associated secretory pathway kinase)	1	-1.14	0.43	0.258
MRPL34 (mitochondrial ribosomal protein L34)	1	-0.38	-0.418	-0.707
MON2 (MON2 regulator of endosome-to-Golgi trafficking)	1	-0.112	2.04	-0.395
CCDC38 (coiled-coil domain containing 38)	1	0.44	0.015	-0.743
RNF41 (ring finger protein 41)	1	-0.0234	-0.692	-0.717
GPR173 (G protein-coupled receptor 173)	1	0.577	1.01	0.232
ECM2 (extracellular matrix protein 2)	1	-0.555	-1.88	-0.839
LINC00315 (long independently transcribed non-coding RNA 315)	1	-1.91	-1.79	-1.58
MTR (5-methyltetrahydrofolate-homocysteine methyltransferase)	1	-0.267	-0.085	-0.406
LOC440971 (retired record)	1	2.15	1.86	1.97
ADGRG7 (adhesion G protein-coupled receptor G7)	1	2.73 (active)	1.64	2.97
ADRA2A (adrenoceptor alpha 2A)	1	1.04	0.87	1.96
ANKRD34B (ankyrin repeat domain 34B)	1	0.427	0.501	0.327
ACACA (acetyl-CoA carboxylase alpha)	1	-0.285	-1.24	-1.18

A run of entries from the list above, as a working copy:
gene	reagent no.	robust z-score, replicate 1	robust z-score, replicate 2	robust z-score, replicate 3
CCDC38 (coiled-coil domain containing 38)	1	0.44	0.015	-0.743
RNF41 (ring finger protein 41)	1	-0.0234	-0.692	-0.717
GPR173 (G protein-coupled receptor 173)	1	0.577	1.01	0.232
ECM2 (extracellular matrix protein 2)	1	-0.555	-1.88	-0.839
LINC00315 (long independently transcribed non-coding RNA 315)	1	-1.91	-1.79	-1.58
MTR (5-methyltetrahydrofolate-homocysteine methyltransferase)	1	-0.267	-0.085	-0.406
LOC440971 (retired record)	1	2.15	1.86	1.97
